Reference: the supplement of paper PMC10331698
± gives the standard deviation of the averaged measurements. Most values lie at the level of the controls, where differences are scatter.

Tests used:
Test in all cases: level (log10 ratio to DMSO vehicle control); higher = higher biomarker level / cell amount than vehicle control
[1] = compound: O=C(O)C(F)(F)C(F)(F)C(F)(F)F [Perfluorobutanoic acid]; details: 2200 nM; in DMSO
Procedure: (§1)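 BioMAP Diversity Plus panel of 12 human primary cell co-culture systems (3C, 4H, LPS, SAg, BT, BF4T, BE3C, CASM3C, HDF3CGF, KF3CT, MyoF, Mphg). Compounds were added 1 h before stimulation and left for 24 h (MyoF 48 h; BT 72 h for soluble read-outs or 6 d for IgG). Biomarkers were read by ELISA, cytotoxicity by SRB, PBMC viability and proliferation by Alamar Blue. Each well value was divided by the mean of 8 DMSO control wells on the same plate and log10 transformed; duplicate blinded samples were tested at 4 concentrations.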

[2] = compound: FC(F)C(F)(F)COCC1CO1 [((2,2,3,3-Tetrafluoropropoxy)methyl)oxirane]; details: 2200 nM; in DMSO
Procedure: as §1

[3] = compound: O=S(=O)(Cl)C(F)(F)C(F)(F)C(F)(F)C(F)(F)C(F)(F)C(F)(F)C(F)(F)C(F)(F)F [Perfluoro-1-octanesulfonyl chloride]; details: 2200 nM; in DMSO
Procedure: as §1

[4] = compound: O=C(O)C(F)(F)OC(F)(F)C(F)(F)OC(F)(F)C(F)(F)C(F)(F)C(F)(F)F [Perfluoro-3,6-dioxadecanoic acid]; details: 2200 nM; in DMSO
Procedure: as §1

[5] = compound: FC(F)(F)C(F)(F)C(F)(F)C(F)(F)C(F)(F)C(F)(F)C(F)(F)CCI [1-Iodo-1H,1H,2H,2H-perfluorononane]; details: in DMSO
Procedure: as §1

[6] = compound: O=C(O)C(F)(F)C(F)(F)C(F)(F)C(F)(F)C(F)(F)C(F)(F)C(F)(F)C(F)(F)C(F)(F)C(F)(F)F [Perfluoroundecanoic acid]; details: in DMSO
Procedure: as §1

[7] = compound: O=C(O)C(F)(F)OC(F)(F)C(F)(F)OC(F)(F)C(=O)O [Perfluoro-3,6-dioxaoctane-1,8-dioic acid]; details: 2200 nM; in DMSO
Procedure: as §1

[8] = compound: NC(=O)C(F)(F)C(F)(F)C(F)(F)C(F)(F)C(F)(F)C(F)(F)C(F)(F)F [Perfluorooctanamide]; details: 2200 nM; in DMSO
Procedure: as §1

[9] = compound: O=C(O)C=CC(F)(C(F)(F)F)C(F)(F)F [3-(Perfluoroisopropyl)-2-propenoic acid]; details: in DMSO
Procedure: as §1

[10] = compound: O=P(O)(O)CCC(F)(F)C(F)(F)C(F)(F)C(F)(F)C(F)(F)C(F)(F)C(F)(F)C(F)(F)F [((Perfluorooctyl)ethyl)phosphonic acid]; details: 2200 nM; in DMSO
Procedure: as §1

[11] = compound: FC(F)(F)C(F)(F)C(F)(F)C(F)(F)C(F)(F)C(F)(F)C(F)(F)I [1-Iodopentadecafluoroheptane]; details: in DMSO
Procedure: as §1

[12] = compound: C=C(C)C(=O)OCC(F)(F)C(F)(F)C(F)(F)F [2,2,3,3,4,4,4-Heptafluorobutyl methacrylate]; details: 2200 nM; in DMSO
Procedure: as §1

[13] = compound: O=C(O)C(F)(F)C(F)(F)C(F)(F)C(F)(F)C(F)(F)C(F)(F)C(F)(F)C(F)F [9-H-Perfluorononanoic acid]; details: 2200 nM; in DMSO
Procedure: as §1

[14] = compound: O=C(O)C(F)(F)C(F)(F)OC(F)(F)F [Perfluoro-3-methoxypropanoic acid]; details: 2200 nM; in DMSO
Procedure: as §1

[15] = compound: OCC(F)(F)C(F)(F)C(F)(F)C(F)(F)C(F)(F)C(F)(F)C(F)(F)C(F)(F)C(F)(F)C(F)(F)C(F)(F)F [11:1 Fluorotelomer alcohol]; details: in DMSO
Procedure: as §1

[16] = compound: OCCC(F)(F)C(F)(F)C(F)(F)C(F)(F)C(F)(F)C(F)(F)C(F)(F)C(F)(F)F [8:2 Fluorotelomer alcohol]; details: 2200 nM; in DMSO
Procedure: as §1

[17] = compound: C=CC(=O)OCC(F)(F)C(F)(F)C(F)(F)C(F)(F)COC(=O)C=C [1H,1H,6H,6H-Perfluorohexane-1,6-diol diacrylate]; details: 2200 nM; in DMSO
Procedure: as §1

[18] = compound: O=C(O)C(F)(F)C(F)(F)F [Perfluoropropanoic acid]; details: 2200 nM; in DMSO
Procedure: as §1

| Test System | level (log10) [1] | level (log10) [2] | level (log10) [3] | level (log10) [4] | level (log10) ([5]; 740 nM) | level (log10) ([5]; 2200 nM) | level (log10) ([5]; 6700 nM) | level (log10) ([5]; 20000 nM) | level (log10) ([6]; 740 nM) | level (log10) ([6]; 2200 nM) | level (log10) [7] | level (log10) [8] | level (log10) ([9]; 2200 nM) | level (log10) ([9]; 6700 nM) | level (log10) ([9]; 20000 nM) | level (log10) ([9]; 60000 nM) | level (log10) [10] | level (log10) ([11]; 740 nM) | level (log10) ([11]; 2200 nM) | level (log10) ([11]; 6700 nM) | level (log10) ([11]; 20000 nM) | level (log10) [12] | level (log10) [13] | level (log10) [14] | level (log10) ([15]; 370 nM) | level (log10) ([15]; 1100 nM) | level (log10) ([15]; 3300 nM) | level (log10) ([15]; 10000 nM) | level (log10) [16] | level (log10) [17] | level (log10) [18] |
| --- | --- | --- | --- | --- | --- | --- | --- | --- | --- | --- | --- | --- | --- | --- | --- | --- | --- | --- | --- | --- | --- | --- | --- | --- | --- | --- | --- | --- | --- | --- | --- |
| BF4T:CCL2/MCP-1 | 0.0205 ± 0.042 | 0.033 ± 0.062 | 0.0085 ± 0.028 | -0.103 ± 0.083 | 0.0235 ± 0.012 | -0.007 ± 0.014 | -0.0135 ± 0.015 | -0.0245 ± 0.066 | -0.002 ± 0.041 | 0.0085 ± 0.03 | 0.0355 ± 0.019 | 0.016 ± 0.034 | 0.034 ± 0.035 | 0.0045 ± 0.023 | 0.003 ± 0.013 | 0.0505 ± 0.076 | 0.044 ± 0.069 | 0.0155 ± 0.026 | -0.0005 ± 0.0078 | -0.0105 ± 0.0092 | 0.011 ± 0.02 | -0.0135 ± 0.044 | -0.091 ± 0.041 | 0.0395 ± 0.054 | 0.0125 ± 0.0078 | 0.018 ± 0.042 | 0.0235 ± 0.021 | 0.031 ± 0.023 | -0.005 ± 0.054 | -0.009 ± 0.0071 | 0.0015 ± 0.025 |
| BE3C:Keratin 8/18 | -0.004 ± 0.0057 | -0.014 ± 0.0071 | 0.01 ± 0.02 | -0.012 ± 0.0057 | -0.011 ± 0.02 | 0.0055 ± 0.013 | -0.005 ± 0.017 | -0.007 ± 0.0085 | 0 ± 0.0028 | -0.0045 ± 0.00071 | 0 ± 0.0028 | -0.0105 ± 0.011 | -0.0015 ± 0.028 | 0.0015 ± 0.019 | -0.0065 ± 0.012 | 0.002 ± 0.0028 | -0.003 ± 0.0028 | 0.001 ± 0.0085 | -0.0045 ± 0.0064 | -0.0075 ± 0.011 | -0.012 | -0.0165 ± 0.026 | 0.007 ± 0.0057 | -0.001 ± 0.0071 | 0.0145 ± 0.03 | 0.0065 ± 0.04 | -0.016 ± 0.035 | 0.018 ± 0.025 | -0.004 ± 0.014 | 0 ± 0.0099 | -0.0345 ± 0.0035 |
| HDF3CGF:PAI-I | 0.0165 ± 0.00071 | 0.003 ± 0.0042 | 0.0085 ± 0.013 | 0.02 ± 0.021 | 0.0155 ± 0.0035 | 0.0095 ± 0.026 | 0.0075 ± 0.023 | -0.0095 ± 0.032 | -0.0045 ± 0.022 | 0.0145 ± 0.013 | 0.0105 ± 0.043 | -0.0045 ± 0.016 | -0.0125 ± 0.0064 | -0.0085 ± 0.018 | -0.0215 ± 0.015 | -0.0005 ± 0.032 | -0.0175 ± 0.0078 | -0.0115 ± 0.021 | -0.0245 ± 0.00071 | -0.044 ± 0.0071 | -0.064 ± 0.023 | -0.0035 ± 0.067 | 0.01 ± 0.023 | 0.0115 ± 0.037 | 0.024 ± 0.0085 | 0.037 ± 0.0014 | 0.0515 ± 0.012 | 0.029 ± 0.075 | -0.01 ± 0.042 | 0.0375 ± 0.05 | -0.0515 ± 0.069 |
